Reference: publication PMC8654301
No constants are given. Whether binding was seen depends on the method and setting. In cells and extracts the contact can be indirect. Here binding means that the protein was enriched with, or labelled near, the bait; the list need not be complete.

Sequences of proteins named here, by UniProt entry; tags and fusion partners are left off. Residues count along the entry.
UniProt Q9NZC2, residues 19-230: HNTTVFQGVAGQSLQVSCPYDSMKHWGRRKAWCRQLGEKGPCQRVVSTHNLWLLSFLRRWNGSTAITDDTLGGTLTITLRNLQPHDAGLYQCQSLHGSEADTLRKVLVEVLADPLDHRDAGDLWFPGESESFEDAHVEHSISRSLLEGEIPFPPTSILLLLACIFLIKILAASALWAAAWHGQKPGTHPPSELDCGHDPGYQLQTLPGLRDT
UniProt P43403: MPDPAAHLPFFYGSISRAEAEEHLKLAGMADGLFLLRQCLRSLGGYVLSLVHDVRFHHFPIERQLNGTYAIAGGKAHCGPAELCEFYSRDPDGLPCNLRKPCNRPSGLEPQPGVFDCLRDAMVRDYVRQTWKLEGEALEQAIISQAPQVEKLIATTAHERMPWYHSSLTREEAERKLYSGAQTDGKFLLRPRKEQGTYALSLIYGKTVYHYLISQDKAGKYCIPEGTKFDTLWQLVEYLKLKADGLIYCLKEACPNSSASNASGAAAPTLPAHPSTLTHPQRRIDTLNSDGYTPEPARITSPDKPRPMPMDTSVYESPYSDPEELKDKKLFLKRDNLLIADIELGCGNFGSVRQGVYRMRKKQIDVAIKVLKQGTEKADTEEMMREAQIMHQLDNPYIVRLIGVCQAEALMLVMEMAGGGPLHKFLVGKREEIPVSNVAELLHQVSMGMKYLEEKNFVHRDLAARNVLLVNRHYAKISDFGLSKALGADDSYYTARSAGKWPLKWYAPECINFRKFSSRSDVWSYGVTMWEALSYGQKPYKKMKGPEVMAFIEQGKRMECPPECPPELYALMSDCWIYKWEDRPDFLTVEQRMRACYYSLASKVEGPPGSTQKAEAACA

Molecular target: TREM-2 (endogenous, CD4+ T cells and lung tissue) (human (endogenous in CD4+ T cells and lung tissue)) (UniProt Q9NZC2)
Experiment: affinity purification with mass spectrometry

Row | Substance | binding
1 | CD3ζ (endogenous, CD4+ T cells and lung tissue) (from UniProt P20963-1 22-164) | binds
2 | ZAP70 (ζ-chain associated protein of 70 kDa; endogenous, CD4+ T cells and lung tissue) (from UniProt P43403 1-619) (enzyme) | binds
